In article PMC12410181:
No constants are given. Whether binding was seen depends on the method and setting. Binding seen in cells or lysates may run through a third protein. These calls come from enrichment with a bait or labelling near it, and not all partners need be listed.

By UniProt entry, the sequences of proteins in these tests, tags left out.
UniProt O00571: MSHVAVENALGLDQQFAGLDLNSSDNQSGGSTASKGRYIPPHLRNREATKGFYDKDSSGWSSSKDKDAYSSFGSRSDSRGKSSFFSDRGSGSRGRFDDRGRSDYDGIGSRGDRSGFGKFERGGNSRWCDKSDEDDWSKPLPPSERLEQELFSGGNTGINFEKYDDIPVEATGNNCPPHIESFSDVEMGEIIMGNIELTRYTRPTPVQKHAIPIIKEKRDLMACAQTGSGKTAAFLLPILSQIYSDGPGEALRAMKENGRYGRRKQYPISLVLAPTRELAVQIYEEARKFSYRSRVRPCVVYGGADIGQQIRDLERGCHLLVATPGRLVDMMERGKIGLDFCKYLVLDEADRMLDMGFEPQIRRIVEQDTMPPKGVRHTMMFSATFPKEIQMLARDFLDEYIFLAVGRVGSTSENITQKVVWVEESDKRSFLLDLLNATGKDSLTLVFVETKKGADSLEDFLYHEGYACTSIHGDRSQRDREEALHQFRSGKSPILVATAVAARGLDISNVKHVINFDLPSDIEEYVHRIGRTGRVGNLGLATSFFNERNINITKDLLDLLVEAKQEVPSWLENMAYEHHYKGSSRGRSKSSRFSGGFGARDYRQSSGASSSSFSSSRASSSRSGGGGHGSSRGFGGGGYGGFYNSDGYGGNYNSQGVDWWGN
UniProt O00429: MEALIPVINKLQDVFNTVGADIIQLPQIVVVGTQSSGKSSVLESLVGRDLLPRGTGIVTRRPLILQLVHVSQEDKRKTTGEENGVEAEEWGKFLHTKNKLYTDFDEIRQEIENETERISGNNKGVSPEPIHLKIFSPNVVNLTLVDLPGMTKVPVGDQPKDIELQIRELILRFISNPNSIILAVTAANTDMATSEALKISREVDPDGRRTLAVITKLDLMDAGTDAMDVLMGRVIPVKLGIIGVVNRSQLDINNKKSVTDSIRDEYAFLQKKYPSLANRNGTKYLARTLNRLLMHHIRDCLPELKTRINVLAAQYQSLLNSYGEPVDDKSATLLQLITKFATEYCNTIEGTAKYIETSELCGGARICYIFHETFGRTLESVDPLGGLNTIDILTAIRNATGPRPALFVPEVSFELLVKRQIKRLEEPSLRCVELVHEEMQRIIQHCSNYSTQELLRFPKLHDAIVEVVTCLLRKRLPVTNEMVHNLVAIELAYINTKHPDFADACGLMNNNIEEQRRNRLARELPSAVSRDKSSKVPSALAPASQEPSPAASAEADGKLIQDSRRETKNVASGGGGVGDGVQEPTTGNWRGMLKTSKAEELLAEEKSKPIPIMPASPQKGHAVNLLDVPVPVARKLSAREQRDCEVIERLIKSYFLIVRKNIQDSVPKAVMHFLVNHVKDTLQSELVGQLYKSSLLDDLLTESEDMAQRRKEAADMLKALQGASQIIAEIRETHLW

Target: HA-tagged DEAD-box polypeptide 3, X-linked (DDX3) (UniProt O00571)
Assay: affinity purification with mass spectrometry; mitochondrial fractions (2 mg protein) of HA-DDX3-overexpressing BT549 cells treated with or without CCCP (10 uM, 6 h), immunoprecipitated with anti-HA antibody (2 ug), SDS-PAGE, trypsin digestion, nano LC-MS/MS

binding: binds
Substance: dynamin-related protein 1 (DRP1), endogenous (from UniProt O00429 1-736)
